# Primary screen of a compound library

Values are the deposited “Percent Effect”, in %. The record does not define 0% and 100%; most values in the screen are far below 50% and negative numbers occur (in some assays of this library far below -100). This is an unselected part of the compounds tested. Two or more numbers in one place are separate tests of the same structure; such repeats can differ widely.

A: 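Phenotypic screen: M. tuberculosis growth, cholesterol and DPPC medium, 4 days; the read-out is not stated. Compounds at 50 µM. The record gives no direction; compounds that gave an IC50 in retests scored well above the rest, so higher reads as more growth inhibition. Size under these conditions: about 69,000 compounds, about 370 of them at 50% or above in at least one test.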
B: 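Phenotypic screen: M. tuberculosis growth, glucose 7H9 medium, 3 days; the read-out is not stated. Tested at 50 µM. The record gives no direction; compounds that gave an IC50 in retests scored well above the rest, so higher reads as more growth inhibition. Size under these conditions: about 69,000 compounds, about 760 of them at 50% or above in at least one test.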

{"structure": "Cc1ccc2c(c1)c(CNC(=O)C1CCCN(CC(N)=O)C1)nn2C", "stereo": "configuration not stated", "A": -11.73, "B": -12.84}
{"structure": "CCC1CN(C(=O)COc2ccc(C)nc2)CCO1", "stereo": "configuration not stated", "A": -11.93, "B": "-0.4989 & 4.945"}
{"structure": "[H][C@@]12CS(=O)(=O)C[C@]1([H])N(C(=O)Nc1ccccc1Cl)CCN2C(C)=O", "A": -0.8181, "B": -8.15}
{"structure": "Cc1cccc(-c2noc(CN3CCOC(Cn4cccn4)C3)n2)c1", "stereo": "configuration not stated", "A": 2.579, "B": 7.032}
{"structure": "CCc1nc(N)nc(NCCC(=O)N2CCCC2)c1C", "A": 9.121, "B": "-4.188 & -26.96"}
{"structure": "O=C1CC(c2ccsc2)c2cnn(C3CCCC3)c2N1", "stereo": "configuration not stated", "A": 13.54, "B": 25.62}
{"structure": "Cc1cnc(NC(C)Cc2cnccn2)nc1N(C)C", "stereo": "configuration not stated", "A": "0.4486 & -9.576", "B": 30.36}
{"structure": "COCCN(C)C[C@@H]1CN(C(=O)c2ccc(OC)c(F)c2)C[C@@H]1CO", "A": -15.76, "B": 7.49}
{"structure": "O=C(O)C(F)(F)F.O=C(O)C(F)(F)F.O=C(O)C(F)(F)F.c1ccc(CO[C@H]2CO[C@@]3(CCCN(Cc4cccnc4)C3)C2)nc1", "A": -25.66, "B": -1.035}
{"structure": "CC1=NC2(CCN(CC(C)c3ccccc3)CC2)C(=O)N1", "stereo": "configuration not stated", "A": -0.6881, "B": -21.63}
{"structure": "CC(C)N1CCC(C(=O)N2CCCN(c3ccccc3)CC2)CC1", "A": 11.05, "B": "11.03 & -2.504"}
{"structure": "Br.Cc1cccc(N(CC(=O)c2ccccc2)C2=NCCCCC2)c1", "A": 25.53, "B": 54.95}
{"structure": "Cc1cc(=O)[nH]c(SC(C)C(=O)N2CCC(c3ncc[nH]3)CC2)n1", "stereo": "configuration not stated", "A": -6.976, "B": 5.456}
{"structure": "Cc1cccc(C(=O)N2CC(=O)N(c3ccccc3Cl)CC2C)n1", "stereo": "configuration not stated", "A": -19.23, "B": -35.62}
{"structure": "Cc1nccc(CNC(=O)NC(c2ncc(C)s2)C2CC2)n1", "stereo": "configuration not stated", "A": -36.22, "B": -17.3}
{"structure": "O=C(CN1CCNCC1)NCc1ccc2sccc2c1", "A": -39.16, "B": -9.595}
{"structure": "CC1CN(Cc2ccc(C#N)cc2F)CCN1Cc1nccn1C", "stereo": "configuration not stated", "A": 8.161, "B": -9.595}
{"structure": "NS(=O)(=O)CCNC(=O)C1(c2ccc(Br)cc2)CC1", "A": -4.49, "B": -9.022}
{"structure": "CN(C(=O)Nc1cccnc1)C1CCN(c2ccc(Cl)cc2)CC1", "A": "-0.2806 & 5.15", "B": 37.04}
{"structure": "O=C1CCC2(CCN(Cc3cscn3)CC2)CN1CC1CCCO1", "stereo": "configuration not stated", "A": -3.796, "B": -9.861}
{"structure": "CCOC(C)c1nc(CN2CCC(C3OCCO3)CC2)cs1", "stereo": "configuration not stated", "A": "-7.041 & -2.173", "B": -54.36}
{"structure": "CCc1ccc(C(=O)N2CCC(c3nncn3CC)CC2)cc1", "A": 3.07, "B": "-1.182 & -22.42"}
{"structure": "COc1ccccc1OC1CCN(Cc2ccc(N(C)C)nc2)CC1", "A": 3.571, "B": 15.56}
{"structure": "COC(=O)CC(NC(=O)c1cccc(N2CCCC2=O)c1)C(=O)OC", "stereo": "configuration not stated", "A": -12.62, "B": -37.44}
{"structure": "Cc1cccc(N2CCCC3(C2)CN(S(C)(=O)=O)CCO3)c1", "stereo": "configuration not stated", "A": 18.05, "B": "1.243 & -1.693"}
{"structure": "COC(C(=O)N1CCN(c2cccc(Cl)c2)C(=O)C1)c1ccccc1", "stereo": "configuration not stated", "A": -0.0648, "B": -17.19}
{"structure": "O=C(NCc1cccnc1N1CCCC(O)C1)c1ccsc1", "stereo": "configuration not stated", "A": 11.36, "B": -0.1621}

Some entries from above, unchanged:

For COCCN(C)C[C@@H]1CN(C(=O)c2ccc(OC)c(F)c2)C[C@@H]1CO the result was A: -15.76%; B: 7.49%.
For COC(=O)CC(NC(=O)c1cccc(N2CCCC2=O)c1)C(=O)OC (configuration not stated) the result was A: -12.62%; B: -37.44%.

The values are deposited in ChEMBL (CHEMBL3988442, “University of Dundee, Small-Polar-MMV Screening Library” (2021)).